Test results from paper PMC10893103, “Cyclodextrin-Enabled Enantioselective Complexation Study of Cathinone Analogs” (Molecules, 2024).

How the values were obtained:
[1] = Chiral CE enantioseparation screening, pH 4.5
[2] = Affinity capillary electrophoresis (ACE), pH 7.4; settings: 30 mM phosphate buffer pH 7.4; at the optimal CD concentration printed in brackets beside the value
Excerpt: To assess the CD complex formation capability of the five cathinone derivatives, we devised a screening ACE method tailored to closely mimic physiological conditions. In a preliminary study, the ACE conditions were optimized regarding the type, pH, and concentration of the background electrolyte, the applied voltage, and the injection parameters. […] In order to avoid high Joule heat generation, sufficiently low voltage should be used; thus, after registering the Ohm plot (I-U plot), it was set to 15 kV. Throughout our ACE measurements, corrections for viscosity and ionic strength were systematically implemented to ensure precise determination of complex stability constants.
The CE experiments were performed on a HP ^3DCE and on an Agilent 7100 instrument (Agilent Technologies, Waldbronn, Germany) equipped with a photodiode array detector and the Chemstation software for data handling. Untreated fused silica capillaries (50 µm id, 48.5 cm total, 40 cm effective length) were purchased from Agilent. Conditioning of new capillary was conducted by flushing with 1 M NaOH followed by 0.1 M NaOH and water for 30 min each. Prior to all runs, the capillary was preconditioned by rinsing with BGE (2 min). The temperature of the capillary was set to 25 °C. UV detection was performed at 215 nm, and 15–25 kV voltage was applied. Samples were injected hydrodynamically (150 mbar·sec, optimized in the 50–500 mbar·sec range). The CE-pH measurements were carried out applying 25 kV voltage and 200 mbar·sec injection.
The background electrolyte of the CE-pH measurements contained 25 mM Na2HPO4 and 25 mM Na2B4O7, and the appropriate pH was adjusted with hydrochloric acid. During the ACE measurements, 30 mM phosphate buffer pH 7.4 (30 mM Na2HPO4—NaOH) was used. The running buffer was 20 mM acetic acid adjusting with 1 M Tris the pH to 4.5 during the chiral screening experiments. The BGEs contained CDs at various concentrations (0.25–20 mM) in the ACE experiments and 1-5-10 mM in the chiral method optimization experiments.
Stock solutions of each cathinone analog (mephedrone, flephedrone, 4-MEC, butylone, and MDPV) were prepared separately in methanol (1 mg/ml), and appropriate dilutions with water were used to prepare sample solutions for the CE-pH titration and for the ACE studies applying DMSO as EOF marker, while their mixture was used during the chiral separation studies.
The simplest way to determine the mobility is from the migration times (tmax) read from the electropherograms from which the apparent mobility could be calculated, but more accurate mobility values could be obtained by the determination with the Haarhoff–van der Linde (HVL) function based on Equation (2). (2) HVLδ(t;a0,a1,a2,a3δ)=a0/a2a3δ2πexp[−1/2(t−a1/a2)^2]/1/exp(a3δ)−1+1/2[1+erf(t−a1/2a2)] where a0 is the area of the HVL function, a1 is the position of the Gaussian component, a2 is the standard deviation of the Gaussian component, and a3δ is the peak shape distortion. The application of the HVL function is necessary in the case of accurate ACE measurements because, in several cases, the peaks are distorted due to the complex formation, which makes reading the migration times and calculating the mobility more difficult and imprecise.
The most popular technique for quantifying the analyte–ligand interaction with CE is mobility shift ACE.

[3] = Chiral CE enantioseparation screening, pH 4.5; remark: listed apart in the source
[4] = Chiral CE enantioseparation screening, pH 4.5; remark: listed apart in the source
[5] = Chiral CE enantioseparation screening, pH 4.5; remark: listed apart in the source
[6] = Chiral CE enantioseparation screening, pH 4.5; remark: listed apart in the source
[7] = 20 mM acetate buffer pH 4.5, CD 1 mM
[8] = 20 mM acetate buffer pH 4.5, CD 5 mM
[9] = 20 mM acetate buffer pH 4.5, CD 10 mM
[10] = 20 mM acetate buffer pH 4.5, CD 1-5 mM

Compound	Enantioseparation (Rs) of 4-MEC [1, 7]	Enantioseparation (Rs) of 4-MEC [1, 8]	Flephedrone maximal enantioresolution Rs [2]	Mephedrone maximal enantioresolution Rs [2]	Enantioseparation (Rs) of Butylone [3, 7]	Enantioseparation (Rs) of Butylone [3, 8]	Enantioseparation (Rs) of MDPV [4, 7]	Enantioseparation (Rs) of MDPV [4, 8]	Enantioseparation (Rs) of Flephedrone [5, 7]	Enantioseparation (Rs) of Flephedrone [5, 8]	Enantioseparation (Rs) of Mephedrone [6, 7]	Enantioseparation (Rs) of Mephedrone [6, 8]	Enantioseparation (Rs) of 4-MEC [1, 9]	MDPV maximal enantioresolution Rs [2]	Enantioseparation (Rs) of Butylone [3, 9]	Enantioseparation (Rs) of MDPV [4, 9]	Enantioseparation (Rs) of Flephedrone [5, 9]	Enantioseparation (Rs) of Mephedrone [6, 9]	other results
O=S(=O)(O)OC[C@H]1O[C@@H]2O[C@H]3[C@H](O)[C@@H](O)[C@@H](O[C@H]4[C@H](O)[C@@H](O)[C@@H](O[C@H]5[C@H](O)[C@@H](O)[C@@H](O[C@H]6[C@H](O)[C@@H](O)[C@@H](O[C@H]7[C@H](O)[C@@H](O)[C@@H](O[C@H]8[C@H](O)[C@@H](O)[C@@H](O[C@H]1[C@H](O)[C@H]2O)O[C@@H]8COS(=O)(=O)O)O[C@@H]7COS(=O)(=O)O)O[C@@H]6COS(=O)(=O)O)O[C@@H]5COS(=O)(=O)O)O[C@@H]4COS(=O)(=O)O)O[C@@H]3COS(=O)(=O)O [HS-β-CD, heptakis-(6-O-sulfo)-β-CD]	2.4	8.7	0.7	6.2	3.4	9.2	3.4	11.7	3.1	8.1	2.9	9.2	–	–	–	–	–	–	–
CO[C@@H]1[C@@H](OC)[C@H]2O[C@H]3[C@H](OC)[C@@H](OC)[C@@H](O[C@H]4[C@H](OC)[C@@H](OC)[C@@H](O[C@H]5[C@H](OC)[C@@H](OC)[C@@H](O[C@H]6[C@H](OC)[C@@H](OC)[C@@H](O[C@H]7[C@H](OC)[C@@H](OC)[C@@H](O[C@H]8[C@H](OC)[C@@H](OC)[C@@H](O[C@H]9[C@H](OC)[C@@H](OC)[C@@H](O[C@@H]1[C@@H](COS(=O)(=O)O)O2)O[C@@H]9COS(=O)(=O)O)O[C@@H]8COS(=O)(=O)O)O[C@@H]7COS(=O)(=O)O)O[C@@H]6COS(=O)(=O)O)O[C@@H]5COS(=O)(=O)O)O[C@@H]4COS(=O)(=O)O)O[C@@H]3COS(=O)(=O)O [ODMS-γ-CD, octakis-(2,3-O-dimethyl, 6-O-sulfo)-γ-CD]	1.5	4.0	1.1	2.5	1.1	2.9	0	1.5	0.8	2.2	2.2	5.4	5.8	0.9	4.4	2.7	3.3	7.5	4-MEC maximal enantioresolution Rs [2]: 1.7; Butylone maximal enantioresolution Rs [2]: 1.6
O=C(O)CCSC[C@H]1O[C@@H]2O[C@H]3[C@H](O)[C@@H](O)[C@@H](O[C@H]4[C@H](O)[C@@H](O)[C@@H](O[C@H]5[C@H](O)[C@@H](O)[C@@H](O[C@H]6[C@H](O)[C@@H](O)[C@@H](O[C@H]7[C@H](O)[C@@H](O)[C@@H](O[C@H]1[C@H](O)[C@H]2O)O[C@@H]7CSCCC(=O)O)O[C@@H]6CSCCC(=O)O)O[C@@H]5CSCCC(=O)O)O[C@@H]4CSCCC(=O)O)O[C@@H]3CSCCC(=O)O [SAX, hexakis-(6-deoxy-6-(2-carboxyethyl)thio)-α-CD]	0	–	–	–	0	0	0.9	1.1	0	0	0	–	–	1.3	0	1.8	0	–	–
O=C(O)CCSC[C@H]1O[C@@H]2O[C@H]3[C@H](O)[C@@H](O)[C@@H](O[C@H]4[C@H](O)[C@@H](O)[C@@H](O[C@H]5[C@H](O)[C@@H](O)[C@@H](O[C@H]6[C@H](O)[C@@H](O)[C@@H](O[C@H]7[C@H](O)[C@@H](O)[C@@H](O[C@H]8[C@H](O)[C@@H](O)[C@@H](O[C@H]1[C@H](O)[C@H]2O)O[C@@H]8CSCCC(=O)O)O[C@@H]7CSCCC(=O)O)O[C@@H]6CSCCC(=O)O)O[C@@H]5CSCCC(=O)O)O[C@@H]4CSCCC(=O)O)O[C@@H]3CSCCC(=O)O [SBX, heptakis-(6-deoxy-6-(2-carboxyethyl)thio)-β-CD]	0.5	–	1.0	–	0	0.7	0	2.7	0	0.5	0.4	0	0.8	1.6	0.9	1.9	0.6	0	Butylone maximal enantioresolution Rs [2]: 0.9
O=C(O)CCSC[C@H]1O[C@@H]2O[C@H]3[C@H](O)[C@@H](O)[C@@H](O[C@H]4[C@H](O)[C@@H](O)[C@@H](O[C@H]5[C@H](O)[C@@H](O)[C@@H](O[C@H]6[C@H](O)[C@@H](O)[C@@H](O[C@H]7[C@H](O)[C@@H](O)[C@@H](O[C@H]8[C@H](O)[C@@H](O)[C@@H](O[C@H]9[C@H](O)C(O)[C@@H](O[C@H]1[C@H](O)[C@H]2O)O[C@@H]9CSCCC(=O)O)O[C@@H]8CSCCC(=O)O)O[C@@H]7CSCCC(=O)O)O[C@@H]6CSCCC(=O)O)O[C@@H]5CSCCC(=O)O)O[C@@H]4CSCCC(=O)O)O[C@@H]3CSCCC(=O)O (some centres unmarked) [SGX, octakis(6-deoxy-6-(2-carboxyethyl)thio)-γ-CD]	0.4	0.9	–	2.5	0	0	2.4	0	0	0	0	0.8	0.9	2.2	0	0	0.6	0.7	4-MEC maximal enantioresolution Rs [2]: 1.3
OC[C@H]1O[C@@H]2O[C@H]3[C@H](O)[C@@H](O)[C@@H](O[C@H]4[C@H](O)[C@@H](O)[C@@H](O[C@H]5[C@H](O)[C@@H](O)[C@@H](O[C@H]6[C@H](O)[C@@H](O)[C@@H](O[C@H]7[C@H](O)[C@@H](O)[C@@H](O[C@H]1[C@H](O)[C@H]2O)O[C@@H]7CO)O[C@@H]6CO)O[C@@H]5CO)O[C@@H]4CO)O[C@@H]3CO [α-CD]	–	–	–	–	–	–	–	–	–	–	–	–	0.3	0.6	0	0	0	0	Enantioseparation (Rs) of 4-MEC [1, 10]: 0; Enantioseparation (Rs) of Butylone [3, 10]: 0; Enantioseparation (Rs) of MDPV [4, 10]: 0; Enantioseparation (Rs) of Flephedrone [5, 10]: 0; Enantioseparation (Rs) of Mephedrone [6, 10]: 0
carboxyethylated-β-CD [CE-β-CD]	0.2	0	–	0.8	0	0	0	1.5	0	0	0.1	0	0	1.6	0	1.1	0	0.2	–
